This is a selection; strong and weak results do not stand in their true shares. Results filed as inconclusive are left out. Activity calls are given as the source filed them. Calls follow the shape of the dose curve; as a rule, active = well fitted inhibition curve with a large enough effect; inconclusive = small, poorly fitted or top-dose-only effect; inactive = no such curve, though single readings can be large or run the other way.
Potency is read from the fitted curve at half-maximal effect.

This assay is described as follows: qHTS for Inhibitors of TGF-b: CCL64 Cells Orthogonal Assay for Cherry Picks. Also: nearly all actives have a fitted effect of over 65% in size. Conditions: CCL64 CAGA-GFP reporter, TGF-b stimulated, GFP fluorescence, 18 h. An excerpt: TGF-b is a main component in the TGF-b signaling pathway which plays diverse roles in cellular and development pathways. TGF-b is the mediated by the transcription factors Smads. Although the Smad-dependent pathway is the primary canonical TGF-b signaling node, TGF-b1 can also activate alternative signaling pathways, including those involving MAPK (ERK, JNK and p38). This interaction may mediate or enhance Smad-dependent responses, or can exert Smad-independent effects. The complexity of this signaling cascade allows the TGF-b superfamily to perform unique, overlapping or redundant functions. […] We aim to identify Smad3-small molecule antagonists using a quantitative high throughput screening (qHTS) approach. […]
Suspensions of trypsinized CCL64 CAGA-GFP cells were dispensed into white, tissue culture-treated, solid 1536-well plates at 5uL/well (1000 cells/well final concentration) in DMEM medium supplemented with 1% FBS. […] The plates were measured on an Acumen eX3 Explorer plate reader for GFP fluorescence (ex488/em500-530). GFP values were calculated by determining the mean GFP fluorescence of individual cells, and compiling these values for each well to determine a total well GFP signal. The %Activity was determined from the corrected fluorescence values. […] Concentration-response curves were fitted to the signals arising from the resulting fluorescence. […]
For orientation: qHTS replaces the single test concentration by a dilution series.
As to `COc1c(O)cc2c(c1OC)-c1ccc(SC)c(=O)cc1C(NC(C)=O)CC2` (stereo unspecified), the Potency is active: 0.206 µM.
